Results are given in words; binding and its absence hold for the method and conditions named. In cells and extracts the contact can be indirect. Some entries that bind do so weakly or less than the wild type.
Columns and labels:
[1] = biological target: T1, YTH-domain family protein 3 (YTHDF3), endogenous (human (endogenous in HK1)) (UniProt Q7Z739); experiment: co-IP; endogenous proteins; HK1 cell lysates precipitated with YTHDF3 antibody, immunoblot with DDX5, DDX6 and DDX17 antibodies; IgG-IP as control
T1 sequence: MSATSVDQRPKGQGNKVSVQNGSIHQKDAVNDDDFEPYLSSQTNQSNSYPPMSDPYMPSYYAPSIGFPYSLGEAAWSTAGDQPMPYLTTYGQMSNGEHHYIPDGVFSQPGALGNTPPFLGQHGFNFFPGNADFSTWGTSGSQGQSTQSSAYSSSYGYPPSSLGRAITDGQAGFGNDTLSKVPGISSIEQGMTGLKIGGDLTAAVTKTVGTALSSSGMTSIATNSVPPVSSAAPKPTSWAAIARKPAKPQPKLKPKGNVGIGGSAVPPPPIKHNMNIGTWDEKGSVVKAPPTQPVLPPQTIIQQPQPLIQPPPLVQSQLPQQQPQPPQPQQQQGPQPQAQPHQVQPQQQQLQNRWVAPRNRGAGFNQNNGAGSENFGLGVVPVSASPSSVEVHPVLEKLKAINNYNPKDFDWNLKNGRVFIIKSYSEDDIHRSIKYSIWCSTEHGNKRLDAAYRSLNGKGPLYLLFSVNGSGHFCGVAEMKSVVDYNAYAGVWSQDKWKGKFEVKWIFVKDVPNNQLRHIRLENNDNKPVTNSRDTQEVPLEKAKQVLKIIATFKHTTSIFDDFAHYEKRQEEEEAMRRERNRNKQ

The chains behind the UniProt entries cited, without tags or fusion partners. Residues count along the entry.
UniProt P03188, residues 22-857: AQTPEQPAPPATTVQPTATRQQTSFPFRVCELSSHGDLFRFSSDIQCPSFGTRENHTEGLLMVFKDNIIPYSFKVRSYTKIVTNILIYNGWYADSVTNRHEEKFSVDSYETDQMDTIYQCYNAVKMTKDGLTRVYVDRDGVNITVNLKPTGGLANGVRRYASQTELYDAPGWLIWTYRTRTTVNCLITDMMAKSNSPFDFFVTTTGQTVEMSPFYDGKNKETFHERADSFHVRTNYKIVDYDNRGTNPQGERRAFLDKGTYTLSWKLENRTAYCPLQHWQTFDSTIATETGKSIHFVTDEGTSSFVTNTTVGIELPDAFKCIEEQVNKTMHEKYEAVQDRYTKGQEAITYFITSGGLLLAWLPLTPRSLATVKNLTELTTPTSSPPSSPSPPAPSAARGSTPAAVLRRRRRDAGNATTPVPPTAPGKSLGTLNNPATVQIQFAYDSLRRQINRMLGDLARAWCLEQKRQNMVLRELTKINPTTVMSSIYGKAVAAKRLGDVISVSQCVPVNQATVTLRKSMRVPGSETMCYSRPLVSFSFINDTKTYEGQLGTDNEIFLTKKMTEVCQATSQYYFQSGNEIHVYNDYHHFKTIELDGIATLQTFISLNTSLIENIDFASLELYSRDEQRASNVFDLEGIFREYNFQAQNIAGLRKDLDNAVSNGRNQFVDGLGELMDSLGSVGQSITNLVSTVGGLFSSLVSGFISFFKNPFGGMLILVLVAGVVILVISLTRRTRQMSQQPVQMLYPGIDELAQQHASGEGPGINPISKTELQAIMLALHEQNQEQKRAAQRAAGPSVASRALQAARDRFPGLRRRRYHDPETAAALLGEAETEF
UniProt P13164: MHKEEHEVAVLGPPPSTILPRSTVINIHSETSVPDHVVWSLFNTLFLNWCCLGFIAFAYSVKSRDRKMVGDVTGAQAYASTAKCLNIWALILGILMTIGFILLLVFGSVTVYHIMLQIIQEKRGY
UniProt P29317, residues 24-976: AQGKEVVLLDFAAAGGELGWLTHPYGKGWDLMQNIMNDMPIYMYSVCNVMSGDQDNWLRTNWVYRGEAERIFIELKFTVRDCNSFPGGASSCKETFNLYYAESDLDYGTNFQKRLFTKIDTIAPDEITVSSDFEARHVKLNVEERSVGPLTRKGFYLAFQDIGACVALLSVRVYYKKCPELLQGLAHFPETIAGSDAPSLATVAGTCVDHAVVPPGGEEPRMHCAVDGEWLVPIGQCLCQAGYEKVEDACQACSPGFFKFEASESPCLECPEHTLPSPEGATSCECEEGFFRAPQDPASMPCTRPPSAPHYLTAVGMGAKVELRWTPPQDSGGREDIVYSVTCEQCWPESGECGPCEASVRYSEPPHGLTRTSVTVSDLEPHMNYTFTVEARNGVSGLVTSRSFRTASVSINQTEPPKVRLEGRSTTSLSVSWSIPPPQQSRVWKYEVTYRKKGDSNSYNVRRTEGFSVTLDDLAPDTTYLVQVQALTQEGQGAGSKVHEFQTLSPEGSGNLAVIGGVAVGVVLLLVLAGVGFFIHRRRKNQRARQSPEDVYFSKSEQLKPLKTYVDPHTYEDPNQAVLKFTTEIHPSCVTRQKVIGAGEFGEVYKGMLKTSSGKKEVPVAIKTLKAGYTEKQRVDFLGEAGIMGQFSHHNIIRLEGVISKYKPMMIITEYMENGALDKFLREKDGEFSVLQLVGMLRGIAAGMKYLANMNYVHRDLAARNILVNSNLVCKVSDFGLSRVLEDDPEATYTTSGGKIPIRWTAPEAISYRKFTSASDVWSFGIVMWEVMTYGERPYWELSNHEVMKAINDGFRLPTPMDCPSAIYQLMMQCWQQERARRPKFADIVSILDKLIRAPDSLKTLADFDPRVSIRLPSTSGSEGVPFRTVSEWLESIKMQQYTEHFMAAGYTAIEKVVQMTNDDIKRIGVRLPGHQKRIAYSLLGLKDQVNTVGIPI
UniProt Q92841: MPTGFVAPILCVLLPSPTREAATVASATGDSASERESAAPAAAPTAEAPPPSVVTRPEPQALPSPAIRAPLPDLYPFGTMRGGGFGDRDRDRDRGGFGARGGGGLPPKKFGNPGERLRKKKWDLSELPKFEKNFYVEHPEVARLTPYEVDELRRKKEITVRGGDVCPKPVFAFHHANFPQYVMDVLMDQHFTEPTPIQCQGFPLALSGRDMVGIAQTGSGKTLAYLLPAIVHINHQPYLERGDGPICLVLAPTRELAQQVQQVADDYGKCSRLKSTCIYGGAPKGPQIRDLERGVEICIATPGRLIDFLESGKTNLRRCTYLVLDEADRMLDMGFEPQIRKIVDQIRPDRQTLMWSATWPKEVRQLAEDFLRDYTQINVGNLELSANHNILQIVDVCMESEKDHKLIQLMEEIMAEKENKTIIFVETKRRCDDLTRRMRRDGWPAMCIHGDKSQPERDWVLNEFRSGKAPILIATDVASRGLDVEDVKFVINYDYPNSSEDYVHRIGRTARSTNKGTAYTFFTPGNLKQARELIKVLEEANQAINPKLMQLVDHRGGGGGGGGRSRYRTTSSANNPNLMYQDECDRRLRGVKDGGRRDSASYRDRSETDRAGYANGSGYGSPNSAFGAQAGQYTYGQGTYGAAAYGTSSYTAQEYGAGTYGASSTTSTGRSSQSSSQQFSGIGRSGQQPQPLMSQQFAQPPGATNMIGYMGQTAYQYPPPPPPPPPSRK
UniProt P17844: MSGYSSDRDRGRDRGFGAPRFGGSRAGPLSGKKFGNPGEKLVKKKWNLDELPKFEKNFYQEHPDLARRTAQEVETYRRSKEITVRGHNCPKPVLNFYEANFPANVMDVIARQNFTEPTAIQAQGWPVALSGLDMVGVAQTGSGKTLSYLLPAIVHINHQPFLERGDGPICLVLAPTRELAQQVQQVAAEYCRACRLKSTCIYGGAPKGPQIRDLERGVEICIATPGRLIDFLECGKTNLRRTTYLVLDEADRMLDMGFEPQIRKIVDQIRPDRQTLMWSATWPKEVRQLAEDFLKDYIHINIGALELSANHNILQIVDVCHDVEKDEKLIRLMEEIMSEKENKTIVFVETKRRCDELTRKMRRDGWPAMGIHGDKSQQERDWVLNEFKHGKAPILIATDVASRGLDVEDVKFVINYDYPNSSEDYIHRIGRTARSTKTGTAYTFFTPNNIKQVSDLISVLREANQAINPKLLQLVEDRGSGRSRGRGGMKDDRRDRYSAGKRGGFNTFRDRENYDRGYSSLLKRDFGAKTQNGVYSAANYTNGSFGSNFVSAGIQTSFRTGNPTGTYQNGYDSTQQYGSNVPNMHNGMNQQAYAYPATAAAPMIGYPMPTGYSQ

[2] = biological target: Myc-gB (EBV glycoprotein B) (Epstein-Barr virus) (UniProt P03188); experiment: co-IP; HEK293 cells transfected with three plasmids 1:1:1 (Myc-gH/gL or Myc-gB, EphA2 or endogenous EphA2, IFITM1 / empty vector / shIFITM1 / shLacZ / IFITM1^w / IFITM1^m1+2); lysates precipitated with anti-Myc antibody, immunoblot with anti-EphA2, Myc and IFITM1 antibodies
[3] = biological target: Interferon-induced transmembrane protein-1 (IFITM1), endogenous (human (endogenous in NP69 and HK1)) (UniProt P13164); experiment: co-IP; endogenous proteins; NP69 and HK1 cell lysates precipitated with IFITM1 antibody, immunoblot with EphA2 antibody; IgG-IP as control
[4] = biological target: EphA2, overexpressed in HEK293 cells (UniProt P29317); experiment: co-IP; HEK293 cells transfected with three plasmids 1:1:1 (Myc-gH/gL or Myc-gB, EphA2 or endogenous EphA2, IFITM1 / empty vector / shIFITM1 / shLacZ / IFITM1^w / IFITM1^m1+2); lysates precipitated with anti-Myc antibody, immunoblot with anti-EphA2, Myc and IFITM1 antibodies

binding [1]	Substance	binding [2]	other results
binds	DDX17, endogenous (from UniProt Q92841 1-729)	–	–
binds	DEAD-box protein 5 (DDX5), endogenous (from UniProt P17844 1-614)	–	–
–	EphA2, overexpressed in HEK293 cells (from UniProt P29317 24-976) (receptor)	binds	–
–	Ephrin receptor A2 (EphA2), endogenous (from UniProt P29317 24-976)	binds	binding [3]: binds
–	IFITM1, overexpressed in HEK293 cells (wild type) (from UniProt P13164 1-125)	–	binding [4]: binds
